What all share (type): physicochemical
Series [1] is described as follows: Aerosol performances by Next Generation Impactor (NGI) from NEXThaler. To be noted: formulation of Example 3, NEXThaler, 60 L/min; mean±S.D., n=6. How it is done: Aerosol performances were determined using the Next Generation Impactor (NGI) with a USP induction port and pre-separator containing 15 mL 60:40% v/v MeOH:H2O. […] The aerodynamic particle size distribution was based on 5 actuations from the NEXThaler®, each sampled into 4 liters of air (equivalent to an inhalation time of 4 s). The device was weighed before and after each actuation to determine the shot weight (mg). A minimum of 1 minute was allowed between consecutive actuations to allow static charge to dissipate.
Samples were collected from the NGI using a fixed volume technique. MeOH:H2O (60:40% v/v) was dispensed into the induction port (including mouthpiece); pre-separator; and each stage using an electronic metering dispenser. The induction port (30 mL) and pre-separator (50 mL) were sealed using silicone bungs and shaken by hand for 2 minutes before the samples were collected. The NGI stages (10 mL stages 1-2; 15 mL stage 3-MOC) were rocked using a NGI rocker for 3 minutes. All samples were filtered using a 0.2 μm syringe filter before analysis by UPLC-PDA.

Series [2] in a line: Uniformity of distribution of the active ingredients in the powder formulation (UPLC-PDA). The following applies: powder formulation of Example 3. How it is done:
About 10 mg of the formulation was weighed directly into a 25 mL volumetric flask. It was sampled 10 times. The flask was made up to volume with 60:40% v/v MeOH:H2O and sonicated for 2 minutes. The samples were analyzed for each active ingredient using UPLC-PDA assay.

Series [3] in a line: Drug content of the microparticles by UPLC assay. To be noted: in spray dried microparticles of Example 1; mean±SD, n=5.

From US20150352127A1, “INHALATION PARTICLES COMPRISING A COMBINATION OF AN ANTICHOLINERGIC, A CORTICOSTEROID AND A BETA-ADRENERGIC” (CHIESI FARMACEUTICI S.P.A., priority 2014, published 2015) come the findings set out here.

Structures can show the parent of a compound that is named as a salt.

In the case of `COc1ccc(CC(C)NCC(O)c2ccc(O)c(NC=O)c2)cc1` (stereo not shown) [FF, formoterol fumarate dihydrate], in series [1], the “FPF (fine particle fraction)” value was 70.2 ± 3.0%, the “FPF < 1 μm (extrafine FPF)” value is reported as 21.6 ± 1.0%, the “FPF < 2 μm (extrafine FPF)” value is 39.7 ± 1.1% and the MMAD is on record as 1.9 ± 0.1 μm. Also, in series [2], the “% of Target” value amounted to 101.27%. Further, in series [2] (sampled 10 times), the Content is given as 6.08 ± 0.08 μg 10 mg^−1. This molecule also yielded an Actual concentration in series [3] of 5.1 ± 0.0 % w/w.
